Record: PubChem BioAssay AID686938 (Drosophila RNAi Screening Center, 2013)
Test: 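Knock-downs reducing store-operated calcium influx in Drosophila cells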 (primary screen). System: Drosophila S2R+ cells. Reagent: long dsRNA against Drosophila genes, about 0.25 µg dsRNA per well, roughly 10,000 cells. Time to read-out: 5 days of knock-down before the calcium assay. Conditions: thapsigargin (SERCA pump blocker) to empty calcium stores; entry signal taken 4 min after adding it. Measurement: 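Per-well fluo-4 fluorescence in two replicates, unnormalised, measured in resting cells and 4 min after store depletion by the SERCA blocker thapsigargin; ratio of the two present in few wells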. Reading the numbers: calcium entry signal: higher = stronger calcium signal after store depletion; entry to resting ratio: higher = more calcium entry relative to resting level; resting calcium signal: higher = higher resting calcium signal. Call rule: 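Called when the plate z-score of the entry-to-rest ratio, mean of duplicates, falls below −3; wells with low overall dye signal (Fmax z below −2) or more than five off-targets excluded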. Meaning of the calls: active = strongly reduced calcium entry; inactive = no strong reduction.
The screen tested about 23,000 reagents; below is a random part of those that have a named target and a result. Of all reagents, 75 (0.33%) were called active. 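Raw plate signals without normalisation; calls rest on plate z-scores that were not deposited; ratio present for only 364 wells.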 Entries without a mark were called inactive. Names joined by + are all predicted targets of the reagent. Not given: the dose of the treatment.

The opening 3 entries as a preview:
| predicted target | amplicon | calcium entry signal, replicate 1 (fluorescence units) | calcium entry signal, replicate 2 (fluorescence units) | entry to resting ratio | resting calcium signal, replicate 1 (fluorescence units) | resting calcium signal, replicate 2 (fluorescence units) |
| --- | --- | --- | --- | --- | --- | --- |
| CG15071 | DRSC06504 | 5.40e7 | 6.12e7 | – | 2.47e7 | 3.05e7 |
| Blos4 | DRSC10151 | 2.63e7 | 3.33e7 | – | 1.36e7 | 1.49e7 |
| grsm | DRSC14165 | 2.29e7 | 4.48e7 | – | 1.17e7 | 7.10e7 |

Main list, repeating the preview:
| predicted target | amplicon | calcium entry signal, replicate 1 (fluorescence units) | calcium entry signal, replicate 2 (fluorescence units) | entry to resting ratio | resting calcium signal, replicate 1 (fluorescence units) | resting calcium signal, replicate 2 (fluorescence units) |
| --- | --- | --- | --- | --- | --- | --- |
| CG15071 | DRSC06504 | 5.40e7 | 6.12e7 | – | 2.47e7 | 3.05e7 |
| Blos4 | DRSC10151 | 2.63e7 | 3.33e7 | – | 1.36e7 | 1.49e7 |
| grsm | DRSC14165 | 2.29e7 | 4.48e7 | – | 1.17e7 | 7.10e7 |
| grsm | DRSC14843 | 1.80e7 | 3.90e7 | – | 9.60e6 | 5.57e7 |
| cv | DRSC17833 | 3.23e7 | 3.86e7 | – | 1.50e7 | 1.79e7 |
| CG5521 | DRSC15828 | 3.07e7 | 5.02e7 | – | 1.51e7 | 2.05e7 |
| Fbxl7 | DRSC15553 | 3.90e7 | 3.37e7 | – | 1.76e7 | 4.90e7 |
| drongo | DRSC00814 | 5.17e7 | – | – | 2.97e7 | – |
| CG15203 | DRSC19650 | 3.19e7 | 4.77e7 | – | 1.60e7 | 2.15e7 |
| CG30177 | DRSC22680 | 2.31e7 | 3.05e7 | – | 1.24e7 | 1.29e7 |
| modSP | DRSC16726 | 2.44e7 | 3.85e7 | – | 1.31e7 | 4.48e7 |
| modSP | DRSC16857 | 2.51e7 | 4.01e7 | – | 1.18e7 | 5.52e7 |
| modSP | DRSC21489 | 3.44e7 | 3.13e7 | – | 1.76e7 | 1.41e7 |
| Tk | DRSC14954 | 3.88e7 | 3.60e7 | – | 1.87e7 | 1.72e7 |
| Tk | DRSC21972 | 1.94e7 | 5.08e7 | – | 1.05e7 | 2.11e7 |
| knrl | DRSC11892 | 3.24e7 | 4.37e7 | – | 1.63e7 | 3.15e7 |
| knrl | DRSC23245 | 4.30e7 | 3.68e7 | – | 2.49e7 | 1.70e7 |
| mu2 | DRSC08726 | 4.62e7 | 3.89e7 | – | 2.10e7 | 2.08e7 |
| mu2 | DRSC21534 | 3.97e7 | 3.79e7 | – | 2.12e7 | 1.93e7 |
| CG9593 | DRSC16508 | 2.81e7 | 5.87e7 | – | 1.43e7 | 6.30e7 |
| CG4537 | DRSC02756 | 4.02e7 | 5.89e7 | – | 1.96e7 | 2.44e7 |
| Mitf | DRSC17212 | 3.99e7 | 5.32e7 | 2.1 | 1.90e7 | 2.10e7 |
| Mitf | DRSC21056 | 5.60e7 | 4.09e7 | – | 2.26e7 | 1.65e7 |
| Ccm3 | DRSC15711 | 2.19e7 | 3.80e7 | – | 1.10e7 | 5.19e7 |
| Kap3 | DRSC19426 | 3.41e7 | 3.04e7 | – | 1.65e7 | 1.45e7 |
| RpL35 | DRSC18347 | 1.28e7 | 1.39e7 | – | 9.19e6 | 9.46e6 |
| Ugt302E1 | DRSC15635 | 2.43e7 | 2.52e7 | – | 1.27e7 | 1.27e7 |
| Mvb12 | DRSC20027 | 3.33e7 | 3.21e7 | – | 1.94e7 | 1.56e7 |
| TfAP-2 | DRSC11601 | 3.15e7 | 4.89e7 | – | 1.50e7 | 2.12e7 |
| puf | DRSC15875 | 3.34e7 | 6.29e7 | – | 2.34e7 | 3.58e7 |
| puf | DRSC23167 | 2.97e7 | 3.39e7 | – | 1.61e7 | 1.49e7 |
| Als2 | DRSC11806 | 3.56e7 | 4.16e7 | – | 1.77e7 | 2.74e7 |
| CR44003 + CG44002 | DRSC00523 | 4.66e7 | – | – | 2.68e7 | – |
| CR44003 + CG44002 | DRSC00606 | 2.38e7 | 2.20e7 | – | 1.25e7 | 1.13e7 |
| Use1 | DRSC10180 | 2.72e7 | 2.92e7 | – | 1.47e7 | 1.43e7 |
| Cpr49Af | DRSC07202 | 3.21e7 | 4.20e7 | – | 1.70e7 | 2.00e7 |
| CG32111 (retired record) | DRSC09203 | 2.85e7 | 3.29e7 | – | 1.42e7 | 1.51e7 |
| su(f) | DRSC20907 | 2.48e7 | 3.14e7 | – | 1.55e7 | 1.57e7 |
| CG5104 | DRSC11765 | 2.70e7 | 4.20e7 | – | 1.30e7 | 1.79e7 |
| HDAC3 | DRSC12352 | 2.27e7 | 2.90e7 | – | 1.03e7 | 1.30e7 |
| CG4000 | DRSC15535 | 4.49e7 | 4.98e7 | – | 6.28e7 | 2.26e7 |
| CG4000 | DRSC21547 | 4.35e7 | 3.71e7 | – | 2.51e7 | 1.82e7 |
| Ir7e | DRSC18011 | 4.71e7 | 2.50e7 | – | 2.11e7 | 1.27e7 |
| CG7744 | DRSC07036 | 3.05e7 | 2.39e7 | – | 1.46e7 | 1.34e7 |
| Sry-delta | DRSC16869 | 3.24e7 | 4.21e7 | – | 1.73e7 | 1.97e7 |
| CG10132 | DRSC02013 | 3.82e7 | – | – | 2.03e7 | – |
| CG7408 | DRSC10841 | 3.77e7 | 4.65e7 | – | 1.80e7 | 1.81e7 |
| CG12581 | DRSC12206 | 3.91e7 | 4.27e7 | – | 1.73e7 | 3.10e7 |
| CG12581 | DRSC12207 | 2.67e7 | 5.20e7 | – | 1.33e7 | 2.29e7 |
| Ilp7 | DRSC17895 | 2.18e7 | 3.24e7 | – | 1.12e7 | 1.47e7 |
| ush | DRSC00843 | 3.76e7 | – | – | 2.50e7 | – |
| Cht7 | DRSC08538 | 3.85e7 | 2.67e7 | – | 2.59e7 | 1.09e7 |
| Cht7 | DRSC21783 | 3.81e7 | 4.11e7 | – | 2.15e7 | 2.08e7 |
| DUBAI | DRSC07281 | 3.44e7 | 4.03e7 | – | 1.51e7 | 1.79e7 |
| CG12693 | DRSC17882 | 2.86e7 | 5.02e7 | – | 1.39e7 | 2.29e7 |
| Cyp9b2 | DRSC07390 | 3.28e7 | 4.33e7 | – | 1.63e7 | 1.88e7 |
| SCAP | DRSC04869 | 4.95e7 | 4.65e7 | – | 2.39e7 | 2.19e7 |
| SCAP | DRSC04907 | 3.57e7 | 3.73e7 | – | 1.99e7 | 1.88e7 |
